What all share (experiment): co-expression and co-purification, SDS-PAGE; subunits co-expressed from one plasmid in E. coli; F1 complex purified as for bMF1 (ref. 26) or PdF1 (ref. 27); conformation of α3β3γ1 confirmed with SDS-PAGE
Assay [1] concerns the target T1, γ subunit of F1-ATPase from Paracoccus denitrificans (PdF1), γQ115C, γD214C (Paracoccus denitrificans) (UniProt A1B8N9).
T1 sequence: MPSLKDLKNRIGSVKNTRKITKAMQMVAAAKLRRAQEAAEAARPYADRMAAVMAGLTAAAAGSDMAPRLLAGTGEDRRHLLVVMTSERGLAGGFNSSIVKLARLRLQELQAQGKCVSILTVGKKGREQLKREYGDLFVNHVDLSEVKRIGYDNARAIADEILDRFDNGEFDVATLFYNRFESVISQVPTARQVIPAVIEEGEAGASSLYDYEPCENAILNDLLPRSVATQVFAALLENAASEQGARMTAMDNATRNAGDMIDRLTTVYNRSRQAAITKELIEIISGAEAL

The chains behind the UniProt entries cited, without tags or fusion partners. Residues count along the entry.
UniProt P00829, residues 47-528: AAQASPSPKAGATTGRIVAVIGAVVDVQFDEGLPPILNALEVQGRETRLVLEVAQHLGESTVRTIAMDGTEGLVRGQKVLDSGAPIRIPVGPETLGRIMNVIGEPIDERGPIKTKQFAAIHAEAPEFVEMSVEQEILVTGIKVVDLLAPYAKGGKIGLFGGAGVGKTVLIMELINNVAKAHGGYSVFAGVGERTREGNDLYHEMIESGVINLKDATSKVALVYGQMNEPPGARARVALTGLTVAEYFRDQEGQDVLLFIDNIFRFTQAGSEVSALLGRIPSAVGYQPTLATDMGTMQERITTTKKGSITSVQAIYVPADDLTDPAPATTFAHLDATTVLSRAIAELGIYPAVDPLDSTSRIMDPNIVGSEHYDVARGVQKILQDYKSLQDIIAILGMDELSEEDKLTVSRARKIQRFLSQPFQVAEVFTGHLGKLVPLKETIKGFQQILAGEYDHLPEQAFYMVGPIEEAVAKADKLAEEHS
UniProt A1B8N8: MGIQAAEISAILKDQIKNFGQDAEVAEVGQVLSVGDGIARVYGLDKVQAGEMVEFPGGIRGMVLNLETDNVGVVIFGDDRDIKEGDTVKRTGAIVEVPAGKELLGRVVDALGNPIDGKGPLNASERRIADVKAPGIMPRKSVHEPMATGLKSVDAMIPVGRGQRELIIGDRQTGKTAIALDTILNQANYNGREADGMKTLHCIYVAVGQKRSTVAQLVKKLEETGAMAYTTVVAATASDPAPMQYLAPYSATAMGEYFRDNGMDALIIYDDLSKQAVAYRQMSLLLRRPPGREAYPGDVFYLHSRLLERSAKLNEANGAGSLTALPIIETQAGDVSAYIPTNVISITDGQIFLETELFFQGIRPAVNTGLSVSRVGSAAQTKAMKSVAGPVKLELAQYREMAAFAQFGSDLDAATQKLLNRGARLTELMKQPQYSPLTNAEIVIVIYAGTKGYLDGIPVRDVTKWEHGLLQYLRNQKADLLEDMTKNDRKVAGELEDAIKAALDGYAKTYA
UniProt P09219: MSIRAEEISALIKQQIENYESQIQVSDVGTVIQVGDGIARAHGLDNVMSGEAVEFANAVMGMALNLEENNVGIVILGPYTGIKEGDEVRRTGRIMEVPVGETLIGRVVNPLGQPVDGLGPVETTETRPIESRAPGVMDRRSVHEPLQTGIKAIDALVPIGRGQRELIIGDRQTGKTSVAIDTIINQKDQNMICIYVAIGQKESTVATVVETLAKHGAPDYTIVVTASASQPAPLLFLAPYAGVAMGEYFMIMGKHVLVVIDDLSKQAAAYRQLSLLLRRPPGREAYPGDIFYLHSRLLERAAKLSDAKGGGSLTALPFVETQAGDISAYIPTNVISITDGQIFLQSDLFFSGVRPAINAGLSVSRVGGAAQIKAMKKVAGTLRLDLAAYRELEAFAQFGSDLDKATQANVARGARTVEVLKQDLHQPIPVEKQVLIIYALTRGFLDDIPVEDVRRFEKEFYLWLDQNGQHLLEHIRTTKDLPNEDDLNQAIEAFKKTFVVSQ

Assay [2] deals with β subunit of bovine mitochondrial F1-ATPase (bMF1) (bovine) (UniProt P00829).
The target in assay [3] is α subunit of F1-ATPase from Paracoccus denitrificans (PdF1) (Paracoccus denitrificans) (UniProt A1B8N8).
In assay [4] the target is α subunit of F1-ATPase from thermophilic Bacillus PS3 (TF1) (thermophilic Bacillus PS3) (UniProt P09219).

These are yes or no findings as the source states them, for the method shown. Some results given as binding are weak or reduced against the parent protein; the word gives no strength.

B1: δ subunit of F1-ATPase from Paracoccus denitrificans (PdF1) (protein, UniProt A1B8N7 1-188)
chain: MTVANSASISADIAGRYAQALFDLVRDSGGIDALSSQIDDLASAYDASQDLRDLTLSPLYDRQQQEAAVGALSERMGLSAELANTLRLLARNRRLFTLPQFVAKLRNLIADAKGEVTADVVSAQALTDEQKARLADTLAAKSGKTVKLNARVDESLIGGMIVKLGSQMIDSSIRSKLASLQNAMKEVG
For the molecule B1, the binding result in assay [1] is “binds”.

B2: ε subunit of F1-ATPase from Paracoccus denitrificans (PdF1) (protein, UniProt A1B8P1 1-148)
chain: MADTMQFDLVSPERNLVSVPVREVRLPGADGDLTAMPGHAPAIVNLRPGLVTVVAGDGSETEFAVTGGFAEINNESVTLLAERGHPRAEMTQEVFNEMMAQARRRVEAAKERESAGEELVAAAVKLLADMEALGTHIGLDPNHANFPH
Consider B2, for which the binding entry in assay [1] was “binds”.

B3: γ subunit of F1-ATPase from Paracoccus denitrificans (PdF1), γQ115C, γD214C (protein, UniProt A1B8N9 1-290)
chain: MPSLKDLKNRIGSVKNTRKITKAMQMVAAAKLRRAQEAAEAARPYADRMAAVMAGLTAAAAGSDMAPRLLAGTGEDRRHLLVVMTSERGLAGGFNSSIVKLARLRLQELQAQGKCVSILTVGKKGREQLKREYGDLFVNHVDLSEVKRIGYDNARAIADEILDRFDNGEFDVATLFYNRFESVISQVPTARQVIPAVIEEGEAGASSLYDYEPCENAILNDLLPRSVATQVFAALLENAASEQGARMTAMDNATRNAGDMIDRLTTVYNRSRQAAITKELIEIISGAEAL
For the molecule B3, the binding entry in assay [2] and in assay [3] was “binds” in each case.

B4: γ subunit of bovine mitochondrial F1-ATPase (bMF1), γA99C, γS191C (protein, UniProt P05631 26-298)
chain: ATLKDITRRLKSIKNIQKITKSMKMVAAAKYARAERELKPARVYGVGSLALYEKADIKTPEDKKKHLIIGVSSDRGLCGAIHSSVAKQMKSEAANLAACGKEVKIIGVGDKIRSILHRTHSDQFLVTFKEVGRRPPTFGDASVIALELLNSGYEFDEGSIIFNRFRSVISYKTEEKPIFSLDTISSAESMCIYDDIDADVLRNYQEYSLANIIYYSLKESTTSEQSARMTAMDNASKNASEMIDKLTLTFNRTRQAVITKELIEIISGAAALD
Turning to B4, in assay [4], the binding result is recorded as “binds”.

Values taken from PMC10182284, “Rotary properties of hybrid F1-ATPases consisting of subunits from different species” (iScience, 2023).
